Laboratory results published in publication PMC9461191.
No constants are given. Whether binding was seen depends on the method and setting. Some entries that bind do so weakly or less than the wild type.

Chains of the proteins cited; added tags and fusions are not shown. Residues count along the entry.
UniProt Q07011, residues 24-255: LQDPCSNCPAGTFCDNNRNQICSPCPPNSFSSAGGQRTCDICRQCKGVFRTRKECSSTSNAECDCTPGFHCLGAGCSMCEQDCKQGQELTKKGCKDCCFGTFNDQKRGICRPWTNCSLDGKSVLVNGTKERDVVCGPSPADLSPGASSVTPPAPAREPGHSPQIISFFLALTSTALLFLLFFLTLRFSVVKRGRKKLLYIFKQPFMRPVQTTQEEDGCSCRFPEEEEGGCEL
UniProt P41273, residues 50-254: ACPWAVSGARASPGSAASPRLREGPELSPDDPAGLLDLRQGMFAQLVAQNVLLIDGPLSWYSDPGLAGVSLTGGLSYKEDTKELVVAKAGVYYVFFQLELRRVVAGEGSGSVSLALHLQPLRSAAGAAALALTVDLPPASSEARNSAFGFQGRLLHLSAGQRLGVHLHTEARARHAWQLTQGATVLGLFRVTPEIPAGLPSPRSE

Molecular target: human 4-1BB on CHO-K1-Hu4-1BB cells (human) (UniProt Q07011)
Assay: flow cytometry on cells; competition on CHO-K1-Hu4-1BB cells; biotin-labeled antibody 1.5 μg/mL mixed with human 4-1BBL 90 to 0.35 μg/mL (fourfold dilutions), 30 min; streptavidin-FITC; only the binder purified

- binding: binds
Substance: human 4-1BBL (from UniProt P41273 50-254) (Fc fusion)
